8 molecules from paper PMC5013389, “Competition between members of the tribbles pseudokinase protein family shapes their interactions with mitogen activated protein kinase pathways” (Scientific Reports, 2016) can be followed below.

Results are given in words; binding and its absence hold for the method and conditions named. Binding seen in cells or lysates may run through a third protein. For part of these data: A result given as binding can be weak or reduced; the word gives no strength. Tags and fused reporters may be left off the sequences shown.

Common to all, as to test: split reporter; Venus YFP protein-fragment complementation assay (PCA): MKK-V1 and TRIB-V2 constructs (full length or truncated) co-transfected into HeLa cells, fluorescent complexes seen by fluorescence microscopy
For experiment [1], the target named is T1, MKK6-V1 (full length MKK6 fused to the V1 fragment of Venus YFP) (UniProt P52564).
T1 sequence: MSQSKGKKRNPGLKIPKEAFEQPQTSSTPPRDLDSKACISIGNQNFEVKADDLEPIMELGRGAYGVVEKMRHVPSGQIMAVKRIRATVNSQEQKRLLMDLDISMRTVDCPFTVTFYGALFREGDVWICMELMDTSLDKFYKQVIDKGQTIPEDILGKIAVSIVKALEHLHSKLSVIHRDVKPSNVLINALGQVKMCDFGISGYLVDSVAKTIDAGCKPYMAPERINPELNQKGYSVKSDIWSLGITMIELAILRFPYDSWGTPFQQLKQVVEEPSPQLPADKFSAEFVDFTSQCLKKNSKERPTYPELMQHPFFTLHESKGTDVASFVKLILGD

Experiment [2] deals with T2, MKK4-V1 (full length MKK4 fused to the V1 fragment of Venus YFP) (UniProt P45985).
T2 sequence: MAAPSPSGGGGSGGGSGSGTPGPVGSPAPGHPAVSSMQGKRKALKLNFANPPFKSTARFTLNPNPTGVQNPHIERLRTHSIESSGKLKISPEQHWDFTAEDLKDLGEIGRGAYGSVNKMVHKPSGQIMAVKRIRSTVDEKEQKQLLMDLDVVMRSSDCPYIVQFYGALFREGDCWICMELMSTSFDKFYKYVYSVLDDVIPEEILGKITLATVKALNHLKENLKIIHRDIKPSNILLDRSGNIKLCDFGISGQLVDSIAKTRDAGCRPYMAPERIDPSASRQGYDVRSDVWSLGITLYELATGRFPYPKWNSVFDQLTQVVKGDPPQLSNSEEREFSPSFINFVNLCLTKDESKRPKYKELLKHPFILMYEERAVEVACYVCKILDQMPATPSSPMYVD

For experiment [3], the target named is MKK6 with the C-terminal domain deleted, PCA construct.
The target of experiment [4] is MKK7 with the N-terminal domain deleted (MAPKKΔN mutant), PCA construct.
For experiment [5], the target named is MKK7 with the C-terminal domain deleted, PCA construct.
Experiment [6] deals with MKK6 with the N-terminal domain deleted (MAPKKΔN mutant), PCA construct.

On to “TRIB1ΔN (TRIB1 with the N-terminal domain deleted), PCA construct (domain or fragment)”, for which the binding result in experiment [1] was “binds”.

“TRIB1 with the C-terminal domain deleted, PCA construct (domain or fragment)”: the binding result in experiment [1] was “binds”.

As for “TRIB3 with the C-terminal domain deleted, PCA construct (domain or fragment)”, the binding entry in experiment [1] is recorded as “binds”.

For “TRIB2 with the N-terminus deleted, PCA construct (domain or fragment)”, the binding entry in experiment [1] is given as “binds”.

As to “TRIB3ΔN (TRIB3 with the N-terminal domain deleted), PCA construct (domain or fragment)”, the binding result in experiment [1] is reported as “binds”.

As for “TRIB2 with the C-terminus deleted, PCA construct (domain or fragment)”, the binding entry in experiment [1] and in experiment [2] was “binds” in each case.

B1: TRIB2-V2 (full length tribbles-2 fused to the V2 fragment of Venus YFP) (protein, UniProt Q92519 1-343)
chain: MNIHRSTPITIARYGRSRNKTQDFEELSSIRSAEPSQSFSPNLGSPSPPETPNLSHCVSCIGKYLLLEPLEGDHVFRAVHLHSGEELVCKVFDISCYQESLAPCFCLSAHSNINQITEIILGETKAYVFFERSYGDMHSFVRTCKKLREEEAARLFYQIASAVAHCHDGGLVLRDLKLRKFIFKDEERTRVKLESLEDAYILRGDDDSLSDKHGCPAYVSPEILNTSGSYSGKAADVWSLGVMLYTMLVGRYPFHDIEPSSLFSKIRRGQFNIPETLSPKAKCLIRSILRREPSERLTSQEILDHPWFSTDFSVSNSAYGAKEVSDQLVPDVNMEENLDPFFN
Take B1: the binding result in experiment [3] was “binds”; in experiment [4], “no binding”; in experiment [5], “no binding”; in experiment [6], “no binding”.

B2: TRIB1-V2 (full length tribbles-1 fused to the V2 fragment of Venus YFP) (protein, UniProt Q96RU8 1-372)
chain: MRVGPVRSAMSGASQPRGPALLFPATRGVPAKRLLDADDAAAVAAKCPRLSECSSPPDYLSPPGSPCSPQPPPAAPGAGGGSGSAPGPSRIADYLLLPLAEREHVSRALCIHTGRELRCKVFPIKHYQDKIRPYIQLPSHSNITGIVEVILGETKAYVFFEKDFGDMHSYVRSRKRLREEEAARLFKQIVSAVAHCHQSAIVLGDLKLRKFVFSTEERTQLRLESLEDTHIMKGEDDALSDKHGCPAYVSPEILNTTGTYSGKAADVWSLGVMLYTLLVGRYPFHDSDPSALFSKIRRGQFCIPEHISPKARCLIRSLLRREPSERLTAPEILLHPWFESVLEPGYIDSEIGTSDQIVPEYQEDSDISSFFC
Consider B2, for which the binding entry in experiment [3] was “binds”; in experiment [4] it was “no binding”; in experiment [5], “no binding”; in experiment [6], “no binding”.
